The results in this text go back to paper PMC7549001.

Amino acid sequences for entries named in this document (tags omitted). A change or cut given only in a name is not applied to a line headed by its entry.
UniProt Q6JAC7: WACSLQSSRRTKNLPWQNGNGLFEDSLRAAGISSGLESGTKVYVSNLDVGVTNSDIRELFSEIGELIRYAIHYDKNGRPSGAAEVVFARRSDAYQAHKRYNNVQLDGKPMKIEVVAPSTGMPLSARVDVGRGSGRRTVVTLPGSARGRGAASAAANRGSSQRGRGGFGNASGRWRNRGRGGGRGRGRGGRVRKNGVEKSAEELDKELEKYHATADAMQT

Results are given in words; binding and its absence hold for the method and conditions named. In cells and extracts the contact can be indirect. A result given as binding can be weak or reduced; the word gives no strength. Sequences can lack the tags named with a protein.

Experiment [1] deals with NbALY916-nYFP (Nicotiana benthamiana) (UniProt Q6JAC7). Kind of experiment: split reporter; BiFC with halves of YFP; agroinfiltration of H2B-RFP transgenic N. benthamiana leaves; fluorescence at 72 hr postinfiltration.
Experiment [2] deals with NbALY916-GFP (Nicotiana benthamiana) (UniProt Q6JAC7). As to the kind of experiment: co-IP; NbALY916-GFP or free GFP with P25 transiently expressed in N. benthamiana; GFP-TRAP_M beads on infiltrated leaf extract; blots with anti-GFP and anti-P25.

B1: P25 as BiFC fusion (P25-nYFP and P25-cYFP) (protein, UniProt P09396 1-226)
chain: MDILIISLKSLGYSRTHKSLDSGPLVVHAVAGAGKSTALRKLILRHPTFTVHTLGVPDKVSIRTRGIQKPGPIPEGNFAILDEYTLDNTTRNSYQALFADPYQAPEFSLEPHFYLETSFRVPRKVADLIAGCGFDFETNSQEEGHLEITGIFKGPLLGKVIAIDEESETTLSKHGVEFVKPCQVTGLEFKVVTVVSAAPIEEIGQSTAFYNAITRSKGLTYVRAGT
B1: the binding entry in experiment [1] is “binds”.

B2: PVX P25 (untagged) (protein, UniProt P09396 1-226)
chain: B1 chain
Take B2: the binding result in experiment [2] was “binds”.
